Experimental data: PubChem BioAssay AID652259 (Drosophila RNAi Screening Center, 2013)
Assay: 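Identify new Wingless signalling regulators in fly cells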 (primary screen). Cell system: Drosophila clone 8 imaginal disc epithelial cells. Knock-down reagent: long dsRNA against Drosophila genes. Treatment: pathway stimulated by co-transfected Wingless expression plasmid. Detection: 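Firefly luciferase from a tcf-site Wingless reporter, measured alongside co-transfected Renilla luciferase that tracks transfection; pathway stimulated by a Wingless plasmid; the firefly-to-Renilla ratio is not deposited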. Direction: firefly reporter light: higher = more Wg reporter light, before normalisation; Renilla control light: higher = more transfected or surviving cells. Call rule: 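Strong candidates differ from their plate mean by at least two out of four per-plate statistical tests; weak candidates meet just one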. Calls: active = candidate regulator (raises or lowers reporter); inactive = not a candidate.
In all, the deposit lists about 22,000 reagents; shown is an unselected part of those with a known target gene and a result. In the full data, 233 (1.1%) are marked active. 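Light values are raw, unnormalised plate reads; the ratio scores behind the reporter calls were not deposited.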 Unmarked entries are inactive. Names joined by + are all predicted targets of the reagent. Not stated in the record: the amount of reagent, the time to read-out, the dose of the treatment.

gene	DRSC id	reporter change call, replicate 1	firefly reporter light, replicate 1	firefly reporter light, replicate 2	Renilla control light, replicate 1	Renilla control light, replicate 2
RpL32	DRSC16835		6459		1671	
CG17404	DRSC15234		18569	6.86e5	6723	3.09e5
CG9132	DRSC20159		2010	5335	856	2567
UbcE2M	DRSC10828		4120		2032	
CG3764	DRSC10375		4320		1672	
CG31274 + MESK4	DRSC13202		3904		1335	
betaNACtes2	DRSC19792		13015		6893	
bcn92	DRSC18741		22098		20368	
Hipk	DRSC07885		2131		1016	
Hipk	DRSC08507		12929		2680	
RAF2	DRSC10443		8119		2405	
RAF2	DRSC10454		9659		3318	
wal	DRSC07717		9763		2291	
CG14301	DRSC14780		15520		4252	
Pp4-19C	DRSC20559		16550		8508	
Pp4-19C	DRSC21251		33924		9158	
betaNACtes3	DRSC20183		24664		10180	
CG31109	DRSC14648		18482		17068	
CG43121	DRSC10457		4176		1812	
Girdin	DRSC08292		7147		2825	
Ptp10D	DRSC20272		14650		7810	
CG14120	DRSC10124		4261		1805	
CG31740	DRSC01619		21650		12983	
tbrd-3	DRSC04295		2488	4976	662	1104
C901	DRSC19351		18368		9445	
CG8314	DRSC07144		17974		4706	
CG32313	DRSC21450		3.81e5	4.78e5	1.56e5	1.57e5
VhaM9.7-d	DRSC15028		9856		2887	
Atg4a	DRSC00656		10102		3348	
CG13481	DRSC10023		4426		1680	
CG3500	DRSC04379		2600	7109	842	1987
CG30289	DRSC03870		16258		8443	
Osi14	DRSC12368		10064		2401	
CG5402	DRSC15792	Wg reporter activity lowered (active)	2438		2929	
Vha16-1	DRSC05020		4331	10253	892	3248
CG14183	DRSC10182		6016		2642	
flap	DRSC03918		14042		9707	
flap	DRSC04087		7739		3329	
CG5767	DRSC06953		7197		2435	
CG15701	DRSC06572		3610		1884	
CG17470	DRSC02621		5840		2998	
CG6034	DRSC10572		6804		2968	
CG32249	DRSC08101		2449		1415	
CG32249	DRSC08177		1787	10966	1574	3909
CG32249	DRSC22444		5.03e5	6.40e5	2.10e5	85408
CG16815	DRSC02521		2586	8305	1063	3335
CG31463	DRSC14346		16920		4608	
CG12129	DRSC06105		7517		2808	
TfIIEbeta	DRSC08701		13378		2970	
CREG	DRSC16595		14405		3808	
Ced-12	DRSC02840		2807	7835	1147	2304
FoxP	DRSC15159		12995		2823	
FoxP	DRSC21961		3.67e5	4.40e5	1.53e5	1.91e5
CG8509	DRSC20109		1360	3449	856	1596
CG13599	DRSC14602		21904		15467	
Gyg	DRSC03850		15814		7830	
Gyg	DRSC04556		3700	5750	907	2509
Snx21	DRSC00564		11072		4082	
Clbn	DRSC14404		19226		14256	
ATPsynE	DRSC15476		8708		3377	
Gr93d	DRSC21941		3.54e5	3.64e5	1.42e5	1.83e5
Vlet	DRSC19845		4521	9728	746	2736
mGluR	DRSC17215		13753		9596	
CycA	DRSC09132		1661		1255	
CycA	DRSC11123		2944		2533	
CG14416	DRSC18639		18627		10136	
Blm	DRSC16911		6877		3491	
Lrrk	DRSC15816		20267		6448	
Lrrk	DRSC21971		8.02e5	8.23e5	4.73e5	4.60e5
mei-P22	DRSC11366		1481	7296	882	2964
CDase	DRSC14932		1113	4377	784	960
svr	DRSC17293		2534		937	
svr	DRSC18841		31712		23144	
CG6833	DRSC10721		6091		1562	
CG14566	DRSC11727		19904		7426	
Spt7	DRSC19997		3376	6900	1368	2597
CG11200	DRSC06060		10128		2755	
Amph	DRSC07578		9408		2437	
CG33233	DRSC08239		4889		2597	
CG8353	DRSC03084		2973	4970	1074	2736
CG11356	DRSC19401		14354		7970	
CG14212	DRSC19568		13830		8869	
CG9691	DRSC18441		21400		9691	
CG8043	DRSC16368		14172		3766	
CG33093	DRSC15775		2979		1144	
dpn	DRSC07605		2330	4597	627	1985
Cp7Fb	DRSC18034		19200		8272	
spir	DRSC03619		2565	9625	517	3452
CG15429	DRSC00444		1996	7252	989	2340
CG14095	DRSC10098		13003		3961	
betaTub60D	DRSC04673		3536	10506	970	3184
betaTub60D	DRSC22218		3.96e5	4.37e5	1.40e5	1.44e5
CG15357	DRSC00387		3984	5766	1241	2492

A stretch taken from the entries so far:
gene	DRSC id	reporter change call, replicate 1	firefly reporter light, replicate 1	firefly reporter light, replicate 2	Renilla control light, replicate 1	Renilla control light, replicate 2
CG8353	DRSC03084		2973	4970	1074	2736
CG11356	DRSC19401		14354		7970	
CG14212	DRSC19568		13830		8869	
CG9691	DRSC18441		21400		9691	
